These are literature values, as cited in patent US20120178147A1, “MICROBIAL CULTURES AND METHODS FOR ANAEROBIC BIOREMEDIATION” (priority 2009, published 2012).

The conditions of data set [1]: cited from earlier work.
For data set [2] the following is noted: cited from earlier work. The source holds these as a separate data set.

Turning to `O=C(Nc1ccc(Cl)cc1)Nc1ccc(Cl)c(Cl)c1` [TCC, 3-(4-chlorophenyl)-1-(3,4-dichlorphenyl) urea], the removal entry in data set [1] (shake flask and bench scale CFAS experiments (Gledhill, 1975)) is listed as “up to 96%”. In addition, the “removed during wastewater treatment” value in data set [1] (sorption and biodegradation (Consortium, 2002)) is 98%.

Turning to `Oc1cc(Cl)ccc1Oc1ccc(Cl)cc1Cl` [TCS, 5-chloro-2-[2,4-dichloro-phenoxy]-phenol], the “adsorbed to the sludge” value in data set [2] (German wastewater treatment plant (Bester, 2003)) is given as “approximately 30%”. In addition, the removed result in data set [2] (continuous activated sludge laboratory study (Federle et al., 2002)) was “more than 80%”.
